Laboratory results taken from publication PMC12271568.
Results are given in words; binding and its absence hold for the method and conditions named. Binding seen in cells or lysates may run through a third protein. A yes stands for co-enrichment or nearness to the bait. Other partners may have been found. One block for each molecule: values may come before it.

Amino acid sequences for entries named in this document (tags omitted). Residues count along the entry.
UniProt O15455, residues 24-904: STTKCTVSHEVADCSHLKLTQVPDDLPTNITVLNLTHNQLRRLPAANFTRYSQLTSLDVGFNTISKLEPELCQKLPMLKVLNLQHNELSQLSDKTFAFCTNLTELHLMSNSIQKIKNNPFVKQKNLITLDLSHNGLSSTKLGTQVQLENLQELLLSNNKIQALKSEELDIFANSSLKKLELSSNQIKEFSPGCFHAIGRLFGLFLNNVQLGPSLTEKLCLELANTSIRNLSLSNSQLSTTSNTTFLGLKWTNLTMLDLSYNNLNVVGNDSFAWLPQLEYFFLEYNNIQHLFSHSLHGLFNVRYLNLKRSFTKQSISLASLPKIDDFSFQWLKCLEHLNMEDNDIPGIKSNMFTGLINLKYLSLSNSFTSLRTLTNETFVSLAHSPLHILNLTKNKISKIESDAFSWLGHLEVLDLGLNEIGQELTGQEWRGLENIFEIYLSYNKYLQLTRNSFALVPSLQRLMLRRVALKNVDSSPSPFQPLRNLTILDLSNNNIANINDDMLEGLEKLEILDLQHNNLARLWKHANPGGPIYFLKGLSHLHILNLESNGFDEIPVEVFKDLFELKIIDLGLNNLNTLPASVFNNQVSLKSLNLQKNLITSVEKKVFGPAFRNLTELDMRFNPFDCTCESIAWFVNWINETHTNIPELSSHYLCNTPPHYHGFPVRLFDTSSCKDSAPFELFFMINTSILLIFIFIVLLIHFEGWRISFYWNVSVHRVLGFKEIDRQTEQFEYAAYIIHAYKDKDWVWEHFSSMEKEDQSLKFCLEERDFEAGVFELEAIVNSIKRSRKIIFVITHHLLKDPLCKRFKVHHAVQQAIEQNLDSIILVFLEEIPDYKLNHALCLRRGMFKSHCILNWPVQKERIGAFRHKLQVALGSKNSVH
UniProt O14744: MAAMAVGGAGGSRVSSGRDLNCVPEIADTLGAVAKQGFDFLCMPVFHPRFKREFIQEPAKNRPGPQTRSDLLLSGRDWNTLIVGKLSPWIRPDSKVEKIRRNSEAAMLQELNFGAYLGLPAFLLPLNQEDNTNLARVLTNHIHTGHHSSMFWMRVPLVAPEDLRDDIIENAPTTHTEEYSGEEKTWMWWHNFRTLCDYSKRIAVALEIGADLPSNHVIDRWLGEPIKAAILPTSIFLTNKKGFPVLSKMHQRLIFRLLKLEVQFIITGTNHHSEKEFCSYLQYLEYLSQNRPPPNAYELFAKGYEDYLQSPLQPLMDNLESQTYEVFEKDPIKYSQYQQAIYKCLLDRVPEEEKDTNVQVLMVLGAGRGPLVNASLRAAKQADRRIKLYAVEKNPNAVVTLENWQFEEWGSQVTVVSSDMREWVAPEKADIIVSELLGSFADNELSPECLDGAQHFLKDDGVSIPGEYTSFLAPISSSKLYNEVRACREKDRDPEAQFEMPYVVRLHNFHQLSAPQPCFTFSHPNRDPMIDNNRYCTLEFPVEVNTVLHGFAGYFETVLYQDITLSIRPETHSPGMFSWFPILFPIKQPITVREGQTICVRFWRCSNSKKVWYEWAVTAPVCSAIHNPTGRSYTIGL
UniProt O96013: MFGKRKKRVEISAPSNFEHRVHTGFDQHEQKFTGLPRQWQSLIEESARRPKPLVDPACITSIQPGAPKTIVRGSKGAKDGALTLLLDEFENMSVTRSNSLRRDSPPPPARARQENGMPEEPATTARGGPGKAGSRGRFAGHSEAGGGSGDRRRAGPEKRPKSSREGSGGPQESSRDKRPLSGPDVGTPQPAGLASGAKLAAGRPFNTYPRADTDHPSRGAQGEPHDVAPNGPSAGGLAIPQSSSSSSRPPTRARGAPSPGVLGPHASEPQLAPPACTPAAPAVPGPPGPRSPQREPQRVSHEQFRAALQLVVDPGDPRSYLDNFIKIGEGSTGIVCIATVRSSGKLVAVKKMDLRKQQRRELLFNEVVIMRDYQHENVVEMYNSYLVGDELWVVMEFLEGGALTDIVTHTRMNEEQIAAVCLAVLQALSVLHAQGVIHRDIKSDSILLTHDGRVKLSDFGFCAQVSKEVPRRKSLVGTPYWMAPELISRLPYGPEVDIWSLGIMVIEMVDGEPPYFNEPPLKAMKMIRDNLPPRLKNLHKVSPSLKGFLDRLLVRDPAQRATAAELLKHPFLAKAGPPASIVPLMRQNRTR
UniProt P14618: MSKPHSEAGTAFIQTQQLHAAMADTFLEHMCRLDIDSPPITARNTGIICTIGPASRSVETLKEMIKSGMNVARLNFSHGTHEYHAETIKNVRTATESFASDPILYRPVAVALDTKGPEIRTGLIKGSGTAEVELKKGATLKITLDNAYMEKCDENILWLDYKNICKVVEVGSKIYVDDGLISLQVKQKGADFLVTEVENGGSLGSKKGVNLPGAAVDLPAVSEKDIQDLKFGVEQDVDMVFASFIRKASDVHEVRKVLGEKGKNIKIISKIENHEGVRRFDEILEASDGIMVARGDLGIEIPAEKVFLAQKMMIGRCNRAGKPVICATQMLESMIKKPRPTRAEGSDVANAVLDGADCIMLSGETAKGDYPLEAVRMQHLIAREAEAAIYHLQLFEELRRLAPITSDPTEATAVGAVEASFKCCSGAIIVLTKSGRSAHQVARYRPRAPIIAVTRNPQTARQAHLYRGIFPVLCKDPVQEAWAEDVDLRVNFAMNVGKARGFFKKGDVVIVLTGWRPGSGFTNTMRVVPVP

Legend:
[1] = target: Flag-TLR3 (Toll-like receptor 3) (UniProt O15455); test: affinity purification with mass spectrometry; Panc1 cells with mock and Flag-TLR3 overexpression; anti-Flag M2 beads; eluted with sample buffer at 98 °C for 10 min; SDS-PAGE, silver stain, bands cut, nanoLC-MS/MS; TLR3-binding proteins in the nucleus
[2] = target: Flag-TLR3 (Toll-like receptor 3) (UniProt O15455); test: affinity purification with mass spectrometry; nuclear and cytoplasmic fractions of Panc1 cells overexpressing TLR3; anti-Flag M2 beads; eluted with IP lysis buffer at 98 °C for 10 min; SDS-PAGE, silver stain, bands cut, nanoLC-MS/MS

- binding [1]: binds
Molecule: protein arginine methyltransferase 5 (PRMT5) (from UniProt O14744 1-637)

- binding [2]: binds
Molecule: PAK4 (from UniProt O96013 1-591)

- binding [2]: binds
Molecule: PKM (from UniProt P14618 1-531)

- binding [2]: binds
B1: RIOK1 (protein, UniProt Q9BRS2 1-568)
chain: MDYRRLLMSRVVPGQFDDADSSDSENRDLKTVKEKDDILFEDLQDNVNENGEGEIEDEEEEGYDDDDDDWDWDEGVGKLAKGYVWNGGSNPQANRQTSDSSSAKMSTPADKVLRKFENKINLDKLNVTDSVINKVTEKSRQKEADMYRIKDKADRATVEQVLDPRTRMILFKMLTRGIITEINGCISTGKEANVYHASTANGESRAIKIYKTSILVFKDRDKYVSGEFRFRHGYCKGNPRKMVKTWAEKEMRNLIRLNTAEIPCPEPIMLRSHVLVMSFIGKDDMPAPLLKNVQLSESKARELYLQVIQYMRRMYQDARLVHADLSEFNMLYHGGGVYIIDVSQSVEHDHPHALEFLRKDCANVNDFFMRHSVAVMTVRELFEFVTDPSITHENMDAYLSKAMEIASQRTKEERSSQDHVDEEVFKRAYIPRTLNEVKNYERDMDIIMKLKEEDMAMNAQQDNILYQTVTGLKKDLSGVQKVPALLENQVEERTCSDSEDIGSSECSDTDSEEQGDHARPKKHTTDPDIDKKERKKMVKEAQREKRKNKIPKHVKKRKEKTAKTKKGK
